± gives the standard deviation of the averaged measurements. The entries are a selection whose mix differs from that of the whole data set.
Compound: Nc1ncnc2c1ncn2[C@@H]1O[C@H](COP(=O)(O)OP(=O)(O)NP(=O)(O)O)[C@@H](O)[C@H]1O [adenylyl imidodiphosphate]
Assay: NP40-soluble protein abundance relative to vehicle (solubility fold change) (ratio); higher = more soluble protein in presence of AMP-PNP
How it was run: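 Across three independent experiments, values are fold changes against the detergent-processed vehicle for each replicate, based on vsn-normalised intensities. The samples were Jurkat crude lysate treated with eight concentrations (0.1 to 10 mM) for 10 min at room temperature and then 3 min at 37 °C. Lysate was solubilised with 0.8% NP40 and benzonase, ultracentrifuged, and the supernatant analysed by TMT-labelled LC-MS/MS.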

The chains behind the UniProt entries cited, without tags or fusion partners. Where a name states a change or a piece, a line headed by the entry shows the natural chain unless it says otherwise.
UniProt Q92947: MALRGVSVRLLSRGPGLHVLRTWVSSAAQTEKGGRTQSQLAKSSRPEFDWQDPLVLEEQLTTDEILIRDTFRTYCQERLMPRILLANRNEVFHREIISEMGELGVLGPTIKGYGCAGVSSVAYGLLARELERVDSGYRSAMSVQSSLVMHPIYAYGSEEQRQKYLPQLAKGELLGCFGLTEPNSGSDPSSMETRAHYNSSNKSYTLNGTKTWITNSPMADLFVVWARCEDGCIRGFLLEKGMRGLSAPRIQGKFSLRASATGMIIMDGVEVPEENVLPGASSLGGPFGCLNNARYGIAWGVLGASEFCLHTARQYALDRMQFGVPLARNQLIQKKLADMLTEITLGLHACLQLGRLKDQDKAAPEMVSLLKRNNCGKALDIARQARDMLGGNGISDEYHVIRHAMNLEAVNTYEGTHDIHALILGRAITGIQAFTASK
UniProt Q8WUR7: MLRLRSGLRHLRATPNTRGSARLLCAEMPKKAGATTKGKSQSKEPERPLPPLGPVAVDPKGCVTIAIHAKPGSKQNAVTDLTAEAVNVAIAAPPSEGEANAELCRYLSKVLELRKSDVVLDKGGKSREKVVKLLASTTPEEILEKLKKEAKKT
UniProt Q8TDW0: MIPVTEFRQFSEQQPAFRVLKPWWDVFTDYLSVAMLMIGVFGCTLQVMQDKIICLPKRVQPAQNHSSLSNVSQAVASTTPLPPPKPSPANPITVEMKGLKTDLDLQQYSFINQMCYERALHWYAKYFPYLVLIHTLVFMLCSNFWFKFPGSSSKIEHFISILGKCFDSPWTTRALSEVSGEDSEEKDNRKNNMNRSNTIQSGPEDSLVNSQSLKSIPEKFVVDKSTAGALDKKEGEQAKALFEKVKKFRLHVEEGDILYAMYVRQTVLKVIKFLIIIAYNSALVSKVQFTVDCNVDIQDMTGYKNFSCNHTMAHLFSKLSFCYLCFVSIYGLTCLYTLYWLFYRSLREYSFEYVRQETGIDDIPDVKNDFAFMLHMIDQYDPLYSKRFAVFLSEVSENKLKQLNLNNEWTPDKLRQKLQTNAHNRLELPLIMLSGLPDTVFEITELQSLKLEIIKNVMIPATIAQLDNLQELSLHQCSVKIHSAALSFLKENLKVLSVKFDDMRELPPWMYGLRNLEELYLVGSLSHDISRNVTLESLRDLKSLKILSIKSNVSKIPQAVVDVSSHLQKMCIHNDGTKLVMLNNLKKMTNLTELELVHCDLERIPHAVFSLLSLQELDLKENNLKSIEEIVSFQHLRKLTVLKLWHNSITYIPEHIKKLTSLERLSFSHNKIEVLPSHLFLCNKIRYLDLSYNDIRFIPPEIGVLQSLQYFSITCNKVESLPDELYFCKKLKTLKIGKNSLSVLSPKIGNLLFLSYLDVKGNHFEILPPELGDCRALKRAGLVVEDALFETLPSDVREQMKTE
UniProt Q92882: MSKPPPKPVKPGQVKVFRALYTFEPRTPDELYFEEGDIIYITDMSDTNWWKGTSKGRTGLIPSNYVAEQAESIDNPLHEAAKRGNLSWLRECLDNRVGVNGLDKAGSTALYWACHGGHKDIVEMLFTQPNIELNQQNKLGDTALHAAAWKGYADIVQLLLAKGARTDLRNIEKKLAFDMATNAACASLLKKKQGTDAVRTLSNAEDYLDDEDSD
UniProt Q8WVK7: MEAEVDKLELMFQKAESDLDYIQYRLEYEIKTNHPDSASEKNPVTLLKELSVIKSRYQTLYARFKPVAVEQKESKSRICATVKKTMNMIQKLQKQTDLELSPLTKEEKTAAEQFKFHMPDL
UniProt Q8WXE0: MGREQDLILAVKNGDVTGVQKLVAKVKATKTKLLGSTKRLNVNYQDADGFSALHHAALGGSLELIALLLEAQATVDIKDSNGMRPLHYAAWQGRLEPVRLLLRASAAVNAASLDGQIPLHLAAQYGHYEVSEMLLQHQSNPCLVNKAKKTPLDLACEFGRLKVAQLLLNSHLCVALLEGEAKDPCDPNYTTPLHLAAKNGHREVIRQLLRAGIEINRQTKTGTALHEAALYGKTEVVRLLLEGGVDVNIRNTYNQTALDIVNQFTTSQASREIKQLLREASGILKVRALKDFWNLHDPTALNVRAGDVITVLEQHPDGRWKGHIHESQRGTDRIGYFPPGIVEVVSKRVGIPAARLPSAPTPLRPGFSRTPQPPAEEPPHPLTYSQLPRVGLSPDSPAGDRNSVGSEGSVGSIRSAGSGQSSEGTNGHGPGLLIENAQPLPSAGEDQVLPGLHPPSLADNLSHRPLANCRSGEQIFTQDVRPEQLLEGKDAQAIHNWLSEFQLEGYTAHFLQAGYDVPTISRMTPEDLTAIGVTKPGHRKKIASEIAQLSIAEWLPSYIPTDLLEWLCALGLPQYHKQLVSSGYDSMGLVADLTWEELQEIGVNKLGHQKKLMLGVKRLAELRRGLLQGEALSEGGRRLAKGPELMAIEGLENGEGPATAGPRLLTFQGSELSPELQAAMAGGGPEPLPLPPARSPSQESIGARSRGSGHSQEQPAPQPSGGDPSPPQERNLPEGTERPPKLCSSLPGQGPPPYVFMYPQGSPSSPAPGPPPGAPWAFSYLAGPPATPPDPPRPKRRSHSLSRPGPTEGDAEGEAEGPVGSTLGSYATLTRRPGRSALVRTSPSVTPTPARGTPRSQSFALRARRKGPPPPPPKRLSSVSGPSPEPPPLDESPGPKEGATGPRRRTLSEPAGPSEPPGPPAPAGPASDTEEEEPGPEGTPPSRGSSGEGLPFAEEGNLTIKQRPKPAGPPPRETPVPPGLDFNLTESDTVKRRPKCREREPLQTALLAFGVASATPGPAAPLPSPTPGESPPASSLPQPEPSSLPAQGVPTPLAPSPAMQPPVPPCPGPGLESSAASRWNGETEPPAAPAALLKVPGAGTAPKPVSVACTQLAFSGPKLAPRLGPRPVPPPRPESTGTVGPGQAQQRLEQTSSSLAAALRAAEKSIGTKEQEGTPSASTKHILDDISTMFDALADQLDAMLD
UniProt Q8WV92, whole entry: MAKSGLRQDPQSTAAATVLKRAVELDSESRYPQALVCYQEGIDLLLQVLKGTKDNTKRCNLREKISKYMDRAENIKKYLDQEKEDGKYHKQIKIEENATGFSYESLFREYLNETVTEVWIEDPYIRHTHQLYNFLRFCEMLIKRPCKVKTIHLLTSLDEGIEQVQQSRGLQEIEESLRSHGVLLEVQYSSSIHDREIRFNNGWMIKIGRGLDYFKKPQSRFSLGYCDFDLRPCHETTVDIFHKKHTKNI
UniProt Q8WWW0: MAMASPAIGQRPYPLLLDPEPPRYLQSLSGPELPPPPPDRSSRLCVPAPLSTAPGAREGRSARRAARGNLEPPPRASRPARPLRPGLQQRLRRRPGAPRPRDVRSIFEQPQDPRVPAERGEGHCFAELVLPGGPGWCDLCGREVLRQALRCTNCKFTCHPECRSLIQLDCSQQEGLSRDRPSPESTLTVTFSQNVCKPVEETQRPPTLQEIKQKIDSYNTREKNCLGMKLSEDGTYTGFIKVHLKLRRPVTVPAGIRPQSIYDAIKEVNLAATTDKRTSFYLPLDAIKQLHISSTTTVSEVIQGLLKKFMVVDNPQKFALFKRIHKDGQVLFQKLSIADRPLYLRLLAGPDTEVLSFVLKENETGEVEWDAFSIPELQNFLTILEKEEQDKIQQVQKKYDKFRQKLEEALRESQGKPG
UniProt Q8TCJ2: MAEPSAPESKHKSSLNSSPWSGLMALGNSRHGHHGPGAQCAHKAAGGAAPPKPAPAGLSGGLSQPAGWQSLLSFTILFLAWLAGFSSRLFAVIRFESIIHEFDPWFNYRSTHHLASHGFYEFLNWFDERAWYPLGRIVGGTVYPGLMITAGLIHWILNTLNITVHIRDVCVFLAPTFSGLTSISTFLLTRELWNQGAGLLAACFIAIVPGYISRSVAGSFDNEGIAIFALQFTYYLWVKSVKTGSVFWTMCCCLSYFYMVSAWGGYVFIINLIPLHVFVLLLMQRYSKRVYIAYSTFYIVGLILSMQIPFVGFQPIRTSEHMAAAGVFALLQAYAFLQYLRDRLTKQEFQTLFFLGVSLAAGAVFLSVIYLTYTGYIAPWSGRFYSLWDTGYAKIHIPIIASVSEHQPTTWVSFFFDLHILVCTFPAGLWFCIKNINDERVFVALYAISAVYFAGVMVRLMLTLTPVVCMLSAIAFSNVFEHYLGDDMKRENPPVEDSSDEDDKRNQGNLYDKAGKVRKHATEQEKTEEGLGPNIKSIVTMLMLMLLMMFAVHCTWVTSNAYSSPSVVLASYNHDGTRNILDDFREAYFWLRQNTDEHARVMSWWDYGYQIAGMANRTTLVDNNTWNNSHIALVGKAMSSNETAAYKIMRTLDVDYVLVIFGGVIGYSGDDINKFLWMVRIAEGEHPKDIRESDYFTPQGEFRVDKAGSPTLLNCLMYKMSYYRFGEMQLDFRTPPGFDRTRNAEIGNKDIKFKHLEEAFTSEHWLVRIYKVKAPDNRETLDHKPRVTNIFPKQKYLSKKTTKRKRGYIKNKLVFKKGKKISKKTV
UniProt Q92636: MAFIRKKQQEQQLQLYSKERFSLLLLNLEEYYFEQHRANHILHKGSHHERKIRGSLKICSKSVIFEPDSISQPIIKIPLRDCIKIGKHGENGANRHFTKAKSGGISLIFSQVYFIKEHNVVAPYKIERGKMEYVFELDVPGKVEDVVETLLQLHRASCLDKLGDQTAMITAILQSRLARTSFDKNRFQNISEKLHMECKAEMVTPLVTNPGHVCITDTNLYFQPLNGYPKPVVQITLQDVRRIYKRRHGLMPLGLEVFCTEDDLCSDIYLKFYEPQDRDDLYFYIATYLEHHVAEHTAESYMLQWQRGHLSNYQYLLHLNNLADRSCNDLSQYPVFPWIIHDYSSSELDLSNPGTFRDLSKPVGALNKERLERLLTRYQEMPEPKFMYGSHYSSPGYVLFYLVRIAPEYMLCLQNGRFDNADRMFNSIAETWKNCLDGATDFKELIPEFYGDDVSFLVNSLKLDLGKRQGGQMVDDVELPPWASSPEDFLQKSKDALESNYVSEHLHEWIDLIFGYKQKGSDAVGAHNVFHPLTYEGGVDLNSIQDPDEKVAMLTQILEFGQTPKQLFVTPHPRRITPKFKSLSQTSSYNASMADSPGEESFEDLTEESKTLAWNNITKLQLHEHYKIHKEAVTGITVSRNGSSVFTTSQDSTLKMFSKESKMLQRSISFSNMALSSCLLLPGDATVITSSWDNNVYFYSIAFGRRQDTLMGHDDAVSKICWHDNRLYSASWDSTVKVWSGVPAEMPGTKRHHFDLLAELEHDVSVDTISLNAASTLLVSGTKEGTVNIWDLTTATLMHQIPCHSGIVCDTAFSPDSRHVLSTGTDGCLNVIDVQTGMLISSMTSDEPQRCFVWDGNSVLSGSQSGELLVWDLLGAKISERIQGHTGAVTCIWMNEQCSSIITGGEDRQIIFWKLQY
UniProt Q8TBB5: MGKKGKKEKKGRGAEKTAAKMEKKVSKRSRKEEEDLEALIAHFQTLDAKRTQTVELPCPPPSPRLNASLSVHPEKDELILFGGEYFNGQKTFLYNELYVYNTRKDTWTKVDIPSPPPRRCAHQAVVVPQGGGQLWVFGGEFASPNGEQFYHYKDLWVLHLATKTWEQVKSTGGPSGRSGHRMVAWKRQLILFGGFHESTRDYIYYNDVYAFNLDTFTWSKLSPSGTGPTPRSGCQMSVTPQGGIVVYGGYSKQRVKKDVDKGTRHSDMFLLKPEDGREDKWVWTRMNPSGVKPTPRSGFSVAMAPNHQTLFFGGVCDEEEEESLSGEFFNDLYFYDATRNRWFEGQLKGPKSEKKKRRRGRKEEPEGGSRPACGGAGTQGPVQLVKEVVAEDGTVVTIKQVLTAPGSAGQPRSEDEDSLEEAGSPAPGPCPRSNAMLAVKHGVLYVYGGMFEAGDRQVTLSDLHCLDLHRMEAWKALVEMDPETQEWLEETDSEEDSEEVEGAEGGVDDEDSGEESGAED
UniProt Q8TAT6: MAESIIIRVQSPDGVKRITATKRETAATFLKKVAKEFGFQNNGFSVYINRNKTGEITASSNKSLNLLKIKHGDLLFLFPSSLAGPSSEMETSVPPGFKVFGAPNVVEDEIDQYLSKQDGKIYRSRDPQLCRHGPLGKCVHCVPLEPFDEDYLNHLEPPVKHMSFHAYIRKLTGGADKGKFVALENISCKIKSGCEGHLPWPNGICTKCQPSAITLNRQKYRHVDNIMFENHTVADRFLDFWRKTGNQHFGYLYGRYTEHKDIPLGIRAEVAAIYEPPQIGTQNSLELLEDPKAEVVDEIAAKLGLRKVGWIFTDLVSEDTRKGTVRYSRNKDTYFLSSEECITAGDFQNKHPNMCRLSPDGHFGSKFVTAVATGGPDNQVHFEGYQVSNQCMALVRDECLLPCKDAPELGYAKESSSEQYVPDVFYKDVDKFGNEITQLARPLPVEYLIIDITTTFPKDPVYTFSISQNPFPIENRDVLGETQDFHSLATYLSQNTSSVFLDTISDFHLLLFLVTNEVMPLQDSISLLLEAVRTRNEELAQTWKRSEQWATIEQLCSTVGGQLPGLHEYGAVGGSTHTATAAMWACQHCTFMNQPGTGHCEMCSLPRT

Row | Target | NP40-soluble protein abundance (concentration: 1mM) | NP40-soluble protein abundance (concentration: 2mM) | NP40-soluble protein abundance (concentration: 4mM) | NP40-soluble protein abundance (concentration: 6mM) | NP40-soluble protein abundance (concentration: 8mM) | NP40-soluble protein abundance (concentration: 10mM)
1 | ANKS1A (UniProt Q92625) | 1.02 ± 0.032 | 1.04 ± 0.057 | 1.03 ± 0.052 | 1.02 ± 0.054 | 0.985 ± 0.062 | 0.989 ± 0.06
2 | GCDH (UniProt Q92947) | 0.963 ± 0.013 | 0.911 ± 0.027 | 0.929 ± 0.047 | 0.94 ± 0.035 | 0.911 ± 0.043 | 0.895 ± 0.046
3 | C15orf40 (UniProt Q8WUR7) | 1.02 ± 0.014 | 1.03 ± 0.067 | 0.988 ± 0.024 | 1.01 ± 0.056 | 0.95 ± 0.019 | 0.965 ± 0.011
4 | MZB1 (UniProt Q8WU39) | 1.05 ± 0.053 | 1.04 ± 0.036 | 1 ± 0.092 | 0.955 ± 0.051 | 1.03 ± 0.076 | 0.988 ± 0.076
5 | UniProt Q8TF01 | 1.04 ± 0.052 | 1.05 ± 0.064 | 1.04 ± 0.069 | 1.08 ± 0.085 | 1.04 ± 0.083 | 1.07 ± 0.15
6 | PDZD8 (UniProt Q8NEN9) | 1.03 ± 0.067 | 1.14 ± 0.097 | 1.09 ± 0.12 | 1.02 ± 0.02 | 0.98 ± 0.028 | 0.993 ± 0.049
7 | LRRC8C (UniProt Q8TDW0) | 1.008 ± 0.0067 | 1 ± 0.013 | 0.997 ± 0.049 | 0.995 ± 0.03 | 1 ± 0.03 | 0.953 ± 0.031
8 | UniProt Q8NHY2 and related entries | 0.9844 ± 0.0098 | 0.9857 ± 0.0016 | 0.996 ± 0.016 | 0.977 ± 0.038 | 0.998 ± 0.031 | 0.987 ± 0.021
9 | OSTF1 (UniProt Q92882) | 1.02 ± 0.028 | 1.07 ± 0.039 | 1.02 ± 0.05 | 0.952 ± 0.019 | 0.979 ± 0.042 | 0.949 ± 0.08
10 | THOC2 (UniProt Q8NI27) | 1.36 ± 0.16 | 1.46 ± 0.2 | 1.63 ± 0.29 | 1.87 ± 0.53 | 2.02 ± 0.6 | 2.15 ± 0.77
11 | UniProt Q8WVM7 and related entries | 0.98 ± 0.022 | 0.997 ± 0.029 | 1.02 ± 0.047 | 0.992 ± 0.034 | 1.05 ± 0.058 | 0.968 ± 0.042
12 | ARPC1A (UniProt Q92747) | 0.957 ± 0.025 | 0.886 ± 0.099 | 0.968 ± 0.034 | 0.948 ± 0.02 | 0.978 ± 0.051 | 0.899 ± 0.035
13 | UniProt Q8WVK7 | 0.96 ± 0.026 | 1.03 ± 0.022 | 0.952 ± 0.017 | 0.992 ± 0.024 | 0.9823 ± 0.0087 | 0.975 ± 0.01
14 | UniProt Q8WXE0 and related entries | 1.02 ± 0.05 | 1.06 ± 0.076 | 1.07 ± 0.021 | 0.986 ± 0.035 | 0.982 ± 0.025 | 1 ± 0.034
15 | TOPBP1 (UniProt Q92547) | 0.9859 ± 0.0039 | 1 ± 0.031 | 1.05 ± 0.033 | 1.01 ± 0.013 | 1.0187 ± 0.00086 | 1.03 ± 0.045
16 | MITD1 (UniProt Q8WV92) | 1.034 ± 0.0031 | 1.04 ± 0.0073 | 1.05 ± 0.01 | 1.066 ± 0.0081 | 1.113 ± 0.0065 | 1.13 ± 0.029
17 | UniProt Q8TBN0 and related entries | 1.01 ± 0.028 | 1 ± 0.031 | 1.01 ± 0.021 | 1.01 ± 0.041 | 1 ± 0.026 | 1 ± 0.051
18 | UniProt Q8NEZ2 and related entries | 0.99 ± 0.026 | 1.02 ± 0.061 | 0.964 ± 0.024 | 0.952 ± 0.02 | 0.929 ± 0.025 | 0.942 ± 0.03
19 | UniProt Q92793 and related entries | 1.05 ± 0.037 | 1.05 ± 0.028 | 1.01 ± 0.035 | 1.01 ± 0.04 | 1.02 ± 0.015 | 1.05 ± 0.02
20 | UniProt Q8WWW0 and related entries | 0.9981 ± 0.0063 | 0.996 ± 0.033 | 1.02 ± 0.018 | 1.03 ± 0.039 | 1.02 ± 0.029 | 1.03 ± 0.052
21 | STT3B (UniProt Q8TCJ2) | 0.973 ± 0.046 | 0.946 ± 0.028 | 0.959 ± 0.011 | 0.976 ± 0.049 | 1 ± 0.011 | 0.984 ± 0.023
22 | UniProt Q92636 and related entries | 0.969 ± 0.041 | 0.909 ± 0.12 | 0.955 ± 0.07 | 0.982 ± 0.034 | 0.981 ± 0.057 | 0.976 ± 0.042
23 | UniProt Q8NC51 and related entries | 1.08 ± 0.052 | 1.16 ± 0.042 | 1.14 ± 0.066 | 1.21 ± 0.094 | 1.25 ± 0.086 | 1.32 ± 0.078
24 | UniProt Q8TBB5 and related entries | 1 ± 0.029 | 1.04 ± 0.044 | 1.016 ± 0.0083 | 1.04 ± 0.035 | 1.01 ± 0.025 | 1.07 ± 0.051
25 | UniProt Q8TAT6 and related entries | 0.955 ± 0.025 | 0.961 ± 0.022 | 0.968 ± 0.044 | 0.983 ± 0.015 | 0.991 ± 0.036 | 1.02 ± 0.025
26 | CNNM3 (UniProt Q8NE01) | 0.974 ± 0.029 | 0.894 ± 0.087 | 0.954 ± 0.028 | 0.98 ± 0.047 | 0.967 ± 0.011 | 0.936 ± 0.025
27 | UniProt Q8NEJ9 and related entries | 1 ± 0.046 | 1 ± 0.01 | 1.005 ± 0.0025 | 1.01 ± 0.089 | 1.008 ± 0.0029 | 1 ± 0.02
28 | SORL1 (UniProt Q92673) | 1.01 ± 0.012 | 1.05 ± 0.066 | 1.02 ± 0.014 | 1.01 ± 0.019 | 0.992 ± 0.01 | 1.03 ± 0.011
29 | NDRG1 (UniProt Q92597) | 1.04 ± 0.037 | 1.04 ± 0.042 | 0.999 ± 0.058 | 1 ± 0.02 | 0.986 ± 0.046 | 0.989 ± 0.051
30 | PMM1 (UniProt Q92871) | 1.02 ± 0.014 | 0.955 ± 0.066 | 1.01 ± 0.017 | 1 ± 0.018 | 1.01 ± 0.024 | 0.997 ± 0.035

Reformatted: entries from further up
Row,Target,NP40-soluble protein abundance (concentration: 1mM),NP40-soluble protein abundance (concentration: 2mM),NP40-soluble protein abundance (concentration: 4mM),NP40-soluble protein abundance (concentration: 6mM),NP40-soluble protein abundance (concentration: 8mM),NP40-soluble protein abundance (concentration: 10mM)
6,PDZD8 (UniProt Q8NEN9),1.03 ± 0.067,1.14 ± 0.097,1.09 ± 0.12,1.02 ± 0.02,0.98 ± 0.028,0.993 ± 0.049
7,LRRC8C (UniProt Q8TDW0),1.008 ± 0.0067,1 ± 0.013,0.997 ± 0.049,0.995 ± 0.03,1 ± 0.03,0.953 ± 0.031

— the supplement of paper PMC6411743
